Assay results reported in publication PMC12000689.
Numbering of substitutions follows the chain as printed. Numbers in names are those of the source. Results are given in words; binding and its absence hold for the method and conditions named. In cells and extracts the contact can be indirect. Some binding calls cover weakened binding; strength is not graded here.

T1: ATP9A (UniProt O75110)
T1 sequence: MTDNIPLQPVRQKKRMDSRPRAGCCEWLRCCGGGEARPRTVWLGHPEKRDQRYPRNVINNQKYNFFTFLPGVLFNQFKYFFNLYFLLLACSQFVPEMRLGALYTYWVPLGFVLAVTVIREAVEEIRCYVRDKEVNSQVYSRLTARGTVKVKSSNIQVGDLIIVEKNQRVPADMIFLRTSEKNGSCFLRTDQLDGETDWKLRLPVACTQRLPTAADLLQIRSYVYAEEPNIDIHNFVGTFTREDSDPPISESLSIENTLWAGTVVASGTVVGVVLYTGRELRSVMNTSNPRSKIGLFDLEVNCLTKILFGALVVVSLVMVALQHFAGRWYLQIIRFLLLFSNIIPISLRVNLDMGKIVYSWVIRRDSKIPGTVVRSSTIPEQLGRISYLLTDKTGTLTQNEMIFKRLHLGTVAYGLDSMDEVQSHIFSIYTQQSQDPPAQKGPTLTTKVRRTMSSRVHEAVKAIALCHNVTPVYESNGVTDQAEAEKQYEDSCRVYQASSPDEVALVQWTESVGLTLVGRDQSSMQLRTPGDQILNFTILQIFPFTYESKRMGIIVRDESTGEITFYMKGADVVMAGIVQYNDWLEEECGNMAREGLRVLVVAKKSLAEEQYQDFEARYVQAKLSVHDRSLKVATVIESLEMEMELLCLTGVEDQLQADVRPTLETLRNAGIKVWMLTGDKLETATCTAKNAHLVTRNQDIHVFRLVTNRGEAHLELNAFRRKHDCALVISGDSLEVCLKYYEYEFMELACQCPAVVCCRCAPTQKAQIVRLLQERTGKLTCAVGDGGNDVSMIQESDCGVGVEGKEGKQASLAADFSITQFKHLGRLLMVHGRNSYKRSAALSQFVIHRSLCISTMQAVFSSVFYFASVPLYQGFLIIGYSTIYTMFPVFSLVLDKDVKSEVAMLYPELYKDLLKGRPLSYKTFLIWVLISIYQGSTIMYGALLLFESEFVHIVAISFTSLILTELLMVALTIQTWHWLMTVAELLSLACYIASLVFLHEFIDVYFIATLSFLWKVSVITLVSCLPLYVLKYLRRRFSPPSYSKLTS

T2: ATP9B (UniProt O43861)
T2 sequence: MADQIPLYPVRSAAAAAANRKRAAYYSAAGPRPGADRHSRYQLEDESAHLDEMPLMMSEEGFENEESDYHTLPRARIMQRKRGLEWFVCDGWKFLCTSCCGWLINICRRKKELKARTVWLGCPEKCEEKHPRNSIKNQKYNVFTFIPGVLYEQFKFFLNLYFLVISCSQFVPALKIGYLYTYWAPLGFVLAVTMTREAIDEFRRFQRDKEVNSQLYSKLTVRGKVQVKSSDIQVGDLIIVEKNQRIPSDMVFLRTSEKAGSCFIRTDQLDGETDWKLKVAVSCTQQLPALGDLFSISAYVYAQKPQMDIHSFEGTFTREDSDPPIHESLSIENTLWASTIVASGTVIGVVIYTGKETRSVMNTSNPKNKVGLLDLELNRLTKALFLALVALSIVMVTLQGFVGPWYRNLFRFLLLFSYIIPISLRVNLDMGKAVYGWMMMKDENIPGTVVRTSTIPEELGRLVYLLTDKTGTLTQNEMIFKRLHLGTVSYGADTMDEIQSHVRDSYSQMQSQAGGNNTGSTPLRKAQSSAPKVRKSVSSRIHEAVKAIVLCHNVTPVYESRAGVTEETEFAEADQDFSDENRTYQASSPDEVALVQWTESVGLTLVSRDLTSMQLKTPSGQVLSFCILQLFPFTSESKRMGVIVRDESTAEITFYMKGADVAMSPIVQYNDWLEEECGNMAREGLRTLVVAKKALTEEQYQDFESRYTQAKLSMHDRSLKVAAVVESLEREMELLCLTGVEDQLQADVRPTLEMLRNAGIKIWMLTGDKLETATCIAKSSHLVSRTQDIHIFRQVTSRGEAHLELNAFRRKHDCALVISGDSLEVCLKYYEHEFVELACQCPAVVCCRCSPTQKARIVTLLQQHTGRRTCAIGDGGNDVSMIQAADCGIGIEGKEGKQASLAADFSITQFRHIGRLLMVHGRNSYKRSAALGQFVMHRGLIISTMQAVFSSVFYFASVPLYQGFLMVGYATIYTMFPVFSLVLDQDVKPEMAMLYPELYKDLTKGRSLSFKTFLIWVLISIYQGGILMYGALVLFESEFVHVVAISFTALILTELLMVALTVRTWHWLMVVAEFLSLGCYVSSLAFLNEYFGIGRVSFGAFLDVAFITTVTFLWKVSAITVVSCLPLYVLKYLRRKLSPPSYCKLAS

B1: ATP9B(E272Q) (protein, UniProt O43861 1-1147)
chain: T2 sequence with E272Q
B2: ATP11C (protein, UniProt Q8NB49 1-1132)
chain: MQMVPSLPPASECAGEEKRVGTRTVFVGNHPVSETEAYIAQRFCDNRIVSSKYTLWNFLPKNLFEQFRRIANFYFLIIFLVQVTVDTPTSPVTSGLPLFFVITVTAIKQGYEDCLRHRADNEVNKSTVYIIENAKRVRKESEKIKVGDVVEVQADETFPCDLILLSSCTTDGTCYVTTASLDGESNCKTHYAVRDTIALCTAESIDTLRAAIECEQPQPDLYKFVGRINIYSNSLEAVARSLGPENLLLKGATLKNTEKIYGVAVYTGMETKMALNYQGKSQKRSAVEKSINAFLIVYLFILLTKAAVCTTLKYVWQSTPYNDEPWYNQKTQKERETLKVLKMFTDFLSFMVLFNFIIPVSMYVTVEMQKFLGSFFISWDKDFYDEEINEGALVNTSDLNEELGQVDYVFTDKTGTLTENSMEFIECCIDGHKYKGVTQEVDGLSQTDGTLTYFDKVDKNREELFLRALCLCHTVEIKTNDAVDGATESAELTYISSSPDEIALVKGAKRYGFTFLGNRNGYMRVENQRKEIEEYELLHTLNFDAVRRRMSVIVKTQEGDILLFCKGADSAVFPRVQNHEIELTKVHVERNAMDGYRTLCVAFKEIAPDDYERINRQLIEAKMALQDREEKMEKVFDDIETNMNLIGATAVEDKLQDQAAETIEALHAAGLKVWVLTGDKMETAKSTCYACRLFQTNTELLELTTKTIEESERKEDRLHELLIEYRKKLLHEFPKSTRSFKKAWTEHQEYGLIIDGSTLSLILNSSQDSSSNNYKSIFLQICMKCTAVLCCRMAPLQKAQIVRMVKNLKGSPITLSIGDGANDVSMILESHVGIGIKGKEGRQAARNSDYSVPKFKHLKKLLLAHGHLYYVRIAHLVQYFFYKNLCFILPQFLYQFFCGFSQQPLYDAAYLTMYNICFTSLPILAYSLLEQHINIDTLTSDPRLYMKISGNAMLQLGPFLYWTFLAAFEGTVFFFGTYFLFQTASLEENGKVYGNWTFGTIVFTVLVFTVTLKLALDTRFWTWINHFVIWGSLAFYVFFSFFWGGIIWPFLKQQRMYFVFAQMLSSVSTWLAIILLIFISLFPEILLIVLKNVRRRSARRNLSCRRASDSLSARPSVRPLLLRTFSDESNVL

Tests used:
[1] = target: T1, ATP9A; test: co-IP; lysates of HeLa cells stably coexpressing an HA-tagged and a FLAG-tagged P4-ATPase; lysis in 20 mM Hepes pH 7.4, 150 mM NaCl, 1 mM EDTA, 1% Nonidet P-40, 4°C; anti-HA antibody and protein G Dynabeads; blot with anti-HA and anti-DYKDDDDK
[2] = target: T2, ATP9B; test: as above

Row | binding [1] | binding [2] | Binder
1 | binds | binds | B1
2 | no binding | no binding | B2
